The values that follow come from article PMC4161973.

These are yes or no findings as the source states them, for the method shown. Binding seen in cells or lysates may run through a third protein. Where a sequence is shown, tags or fusion partners need not be part of it.

The target in one assay is T1, GST-Pse1 (S. cerevisiae) (UniProt P32337).
T1 sequence: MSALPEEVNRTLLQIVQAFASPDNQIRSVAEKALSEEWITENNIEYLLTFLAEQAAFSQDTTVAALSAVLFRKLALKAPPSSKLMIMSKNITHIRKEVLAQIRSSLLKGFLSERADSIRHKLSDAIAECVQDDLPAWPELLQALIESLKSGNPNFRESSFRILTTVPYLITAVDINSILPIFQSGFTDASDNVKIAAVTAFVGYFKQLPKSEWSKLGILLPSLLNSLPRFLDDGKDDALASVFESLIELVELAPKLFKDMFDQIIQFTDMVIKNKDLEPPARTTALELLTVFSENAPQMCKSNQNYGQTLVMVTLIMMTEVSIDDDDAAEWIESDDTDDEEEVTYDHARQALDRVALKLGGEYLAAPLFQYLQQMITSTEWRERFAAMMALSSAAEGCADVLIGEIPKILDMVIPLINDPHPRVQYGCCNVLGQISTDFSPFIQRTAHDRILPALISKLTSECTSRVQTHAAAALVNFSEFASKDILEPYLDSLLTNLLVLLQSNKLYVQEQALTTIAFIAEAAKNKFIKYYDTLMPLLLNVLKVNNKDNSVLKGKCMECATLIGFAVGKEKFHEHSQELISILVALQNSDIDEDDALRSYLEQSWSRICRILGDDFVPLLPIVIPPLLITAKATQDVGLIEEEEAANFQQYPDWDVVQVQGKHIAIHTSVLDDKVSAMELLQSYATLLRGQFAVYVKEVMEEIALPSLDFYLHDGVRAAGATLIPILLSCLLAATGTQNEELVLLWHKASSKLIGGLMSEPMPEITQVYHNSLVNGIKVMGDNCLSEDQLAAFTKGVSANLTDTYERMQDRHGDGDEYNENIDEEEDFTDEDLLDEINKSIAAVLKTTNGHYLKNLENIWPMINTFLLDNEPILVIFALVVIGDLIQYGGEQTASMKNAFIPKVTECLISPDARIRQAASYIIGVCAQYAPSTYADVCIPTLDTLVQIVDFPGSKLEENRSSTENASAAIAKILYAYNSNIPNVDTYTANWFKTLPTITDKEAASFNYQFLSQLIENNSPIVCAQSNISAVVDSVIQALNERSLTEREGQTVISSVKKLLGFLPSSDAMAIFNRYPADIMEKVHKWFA
The experiment in a line: pull-down; GST-importins immobilised on Glutathione Sepharose, incubated with purified 3.4 µM Tsr2 or 4 µM Tsr2:eS26 in PBSKMT with competing E. coli lysates for 1 hr at 4°C; Coomassie Blue staining or Western; both purified.

Assay [1] has as its target T2, GST-Kap104 (S. cerevisiae) (UniProt P38217).
T2 sequence: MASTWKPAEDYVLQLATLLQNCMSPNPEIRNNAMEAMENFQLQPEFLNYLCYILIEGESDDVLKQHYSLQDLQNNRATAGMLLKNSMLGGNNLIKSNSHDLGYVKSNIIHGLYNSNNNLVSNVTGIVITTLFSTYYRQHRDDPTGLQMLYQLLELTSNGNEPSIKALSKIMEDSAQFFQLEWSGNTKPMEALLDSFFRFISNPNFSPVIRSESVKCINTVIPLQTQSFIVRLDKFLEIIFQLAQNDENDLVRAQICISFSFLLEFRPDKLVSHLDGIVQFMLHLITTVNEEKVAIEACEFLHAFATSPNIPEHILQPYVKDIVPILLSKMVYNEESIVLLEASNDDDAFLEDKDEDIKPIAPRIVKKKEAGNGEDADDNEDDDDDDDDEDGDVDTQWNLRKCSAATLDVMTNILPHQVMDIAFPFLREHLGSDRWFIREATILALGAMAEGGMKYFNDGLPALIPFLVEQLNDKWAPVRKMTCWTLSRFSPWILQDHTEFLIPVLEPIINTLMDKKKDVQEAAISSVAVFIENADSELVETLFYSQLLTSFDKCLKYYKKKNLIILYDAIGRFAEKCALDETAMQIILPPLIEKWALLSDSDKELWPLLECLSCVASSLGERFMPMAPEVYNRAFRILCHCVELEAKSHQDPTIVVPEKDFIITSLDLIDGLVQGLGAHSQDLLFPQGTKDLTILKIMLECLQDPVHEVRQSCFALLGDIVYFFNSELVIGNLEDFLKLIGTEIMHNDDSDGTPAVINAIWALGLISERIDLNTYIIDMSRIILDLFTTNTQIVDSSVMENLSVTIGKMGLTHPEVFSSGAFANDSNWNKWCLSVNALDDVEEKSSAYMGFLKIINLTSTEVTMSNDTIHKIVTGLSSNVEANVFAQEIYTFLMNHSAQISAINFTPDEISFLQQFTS
The assay is described as above.

Regarding Tsr2:eS26 complex (S. cerevisiae), the binding entry (in the assay with GST-Pse1 (S. cerevisiae); in assay [1]) was “no binding (tested: 4 µM Tsr2:eS26)” in each case.
